The supplement of paper PMC12819154, “High-throughput peptide-centric local stability assay extends protein–ligand identification to membrane proteins, tissues and bacteria” (Nature Structural & Molecular Biology, 2025)
The list shows a part of the results. Small differences around the control level are noise.

By UniProt entry, the sequences of proteins in these tests, tags left out. Where a name states a change or a piece, a line headed by the entry shows the natural chain unless it says otherwise.
UniProt Q8N6N6: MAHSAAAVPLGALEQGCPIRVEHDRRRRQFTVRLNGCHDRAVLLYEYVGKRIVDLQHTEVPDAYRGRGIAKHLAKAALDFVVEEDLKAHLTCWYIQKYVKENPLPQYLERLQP
UniProt Q8N5F7: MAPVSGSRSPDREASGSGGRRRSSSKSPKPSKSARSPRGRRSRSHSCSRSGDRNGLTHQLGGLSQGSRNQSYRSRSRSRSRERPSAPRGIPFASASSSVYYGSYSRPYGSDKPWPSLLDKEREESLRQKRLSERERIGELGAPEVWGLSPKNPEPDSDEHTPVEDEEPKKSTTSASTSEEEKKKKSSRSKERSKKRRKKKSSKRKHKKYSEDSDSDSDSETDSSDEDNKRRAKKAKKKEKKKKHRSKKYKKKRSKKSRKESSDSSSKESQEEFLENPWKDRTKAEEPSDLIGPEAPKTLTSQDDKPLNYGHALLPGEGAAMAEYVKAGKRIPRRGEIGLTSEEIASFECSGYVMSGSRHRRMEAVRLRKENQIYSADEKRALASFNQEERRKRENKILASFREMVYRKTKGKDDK
UniProt Q8N7B6: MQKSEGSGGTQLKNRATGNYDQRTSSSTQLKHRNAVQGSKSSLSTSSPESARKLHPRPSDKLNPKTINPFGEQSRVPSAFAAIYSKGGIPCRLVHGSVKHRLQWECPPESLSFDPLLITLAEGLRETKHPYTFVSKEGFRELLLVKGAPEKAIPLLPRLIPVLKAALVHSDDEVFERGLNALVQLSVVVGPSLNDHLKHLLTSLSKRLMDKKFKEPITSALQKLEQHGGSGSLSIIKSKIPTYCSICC
UniProt Q8NFG4: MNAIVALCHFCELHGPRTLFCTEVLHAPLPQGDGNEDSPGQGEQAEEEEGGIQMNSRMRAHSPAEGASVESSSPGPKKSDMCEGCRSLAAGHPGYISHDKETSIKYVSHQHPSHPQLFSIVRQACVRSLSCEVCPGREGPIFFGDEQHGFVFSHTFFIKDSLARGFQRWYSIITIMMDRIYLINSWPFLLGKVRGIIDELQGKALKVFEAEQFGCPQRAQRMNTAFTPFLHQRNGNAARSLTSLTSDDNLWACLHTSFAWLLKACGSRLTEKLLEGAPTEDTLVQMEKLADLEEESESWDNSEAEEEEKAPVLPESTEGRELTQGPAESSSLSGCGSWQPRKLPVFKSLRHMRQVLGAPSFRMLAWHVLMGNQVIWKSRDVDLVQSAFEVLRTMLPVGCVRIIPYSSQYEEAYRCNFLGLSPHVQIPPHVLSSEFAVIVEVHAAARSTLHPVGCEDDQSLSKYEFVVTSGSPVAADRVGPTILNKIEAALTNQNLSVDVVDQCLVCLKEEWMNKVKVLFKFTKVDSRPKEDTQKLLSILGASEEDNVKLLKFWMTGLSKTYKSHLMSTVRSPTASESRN
UniProt Q8NB16: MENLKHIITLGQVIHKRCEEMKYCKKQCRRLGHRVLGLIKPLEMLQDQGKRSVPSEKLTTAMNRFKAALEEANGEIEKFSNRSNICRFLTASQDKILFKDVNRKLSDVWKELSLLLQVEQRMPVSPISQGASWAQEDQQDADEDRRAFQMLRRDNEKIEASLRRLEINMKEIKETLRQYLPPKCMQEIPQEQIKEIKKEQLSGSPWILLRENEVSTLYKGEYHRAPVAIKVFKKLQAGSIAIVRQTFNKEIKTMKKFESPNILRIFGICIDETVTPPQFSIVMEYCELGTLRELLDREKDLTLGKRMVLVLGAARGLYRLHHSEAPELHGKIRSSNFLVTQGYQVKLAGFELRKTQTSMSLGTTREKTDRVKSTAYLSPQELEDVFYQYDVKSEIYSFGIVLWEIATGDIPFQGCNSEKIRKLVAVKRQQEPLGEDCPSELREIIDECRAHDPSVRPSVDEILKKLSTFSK
UniProt Q8NBR6: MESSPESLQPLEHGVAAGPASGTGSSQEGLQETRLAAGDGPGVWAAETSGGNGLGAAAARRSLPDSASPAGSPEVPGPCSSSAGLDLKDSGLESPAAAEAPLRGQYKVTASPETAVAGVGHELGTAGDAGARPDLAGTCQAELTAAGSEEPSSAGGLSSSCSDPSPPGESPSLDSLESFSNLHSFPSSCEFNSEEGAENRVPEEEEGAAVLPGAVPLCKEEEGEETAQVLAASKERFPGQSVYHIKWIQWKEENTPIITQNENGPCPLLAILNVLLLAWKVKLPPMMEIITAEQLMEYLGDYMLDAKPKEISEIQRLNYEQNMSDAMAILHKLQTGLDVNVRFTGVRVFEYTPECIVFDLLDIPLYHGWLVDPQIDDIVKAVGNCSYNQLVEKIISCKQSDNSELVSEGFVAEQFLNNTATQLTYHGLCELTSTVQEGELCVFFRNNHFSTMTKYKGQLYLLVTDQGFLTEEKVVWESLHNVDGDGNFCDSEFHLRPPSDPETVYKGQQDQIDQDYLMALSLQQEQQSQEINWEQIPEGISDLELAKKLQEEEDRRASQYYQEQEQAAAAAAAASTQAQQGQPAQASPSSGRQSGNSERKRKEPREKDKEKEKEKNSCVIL
UniProt Q8NCK3: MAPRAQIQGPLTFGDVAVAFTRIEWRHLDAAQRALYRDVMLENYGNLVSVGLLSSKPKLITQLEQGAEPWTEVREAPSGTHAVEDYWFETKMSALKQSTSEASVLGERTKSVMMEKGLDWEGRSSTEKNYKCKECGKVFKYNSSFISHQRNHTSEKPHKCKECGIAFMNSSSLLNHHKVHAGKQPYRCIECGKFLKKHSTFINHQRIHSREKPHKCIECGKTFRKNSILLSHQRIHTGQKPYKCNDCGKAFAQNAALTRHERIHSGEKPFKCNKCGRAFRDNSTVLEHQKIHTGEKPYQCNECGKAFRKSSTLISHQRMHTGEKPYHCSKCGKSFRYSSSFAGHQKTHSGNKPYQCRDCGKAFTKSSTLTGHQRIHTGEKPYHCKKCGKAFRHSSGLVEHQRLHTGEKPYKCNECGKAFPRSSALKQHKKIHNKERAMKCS
UniProt Q8NF50: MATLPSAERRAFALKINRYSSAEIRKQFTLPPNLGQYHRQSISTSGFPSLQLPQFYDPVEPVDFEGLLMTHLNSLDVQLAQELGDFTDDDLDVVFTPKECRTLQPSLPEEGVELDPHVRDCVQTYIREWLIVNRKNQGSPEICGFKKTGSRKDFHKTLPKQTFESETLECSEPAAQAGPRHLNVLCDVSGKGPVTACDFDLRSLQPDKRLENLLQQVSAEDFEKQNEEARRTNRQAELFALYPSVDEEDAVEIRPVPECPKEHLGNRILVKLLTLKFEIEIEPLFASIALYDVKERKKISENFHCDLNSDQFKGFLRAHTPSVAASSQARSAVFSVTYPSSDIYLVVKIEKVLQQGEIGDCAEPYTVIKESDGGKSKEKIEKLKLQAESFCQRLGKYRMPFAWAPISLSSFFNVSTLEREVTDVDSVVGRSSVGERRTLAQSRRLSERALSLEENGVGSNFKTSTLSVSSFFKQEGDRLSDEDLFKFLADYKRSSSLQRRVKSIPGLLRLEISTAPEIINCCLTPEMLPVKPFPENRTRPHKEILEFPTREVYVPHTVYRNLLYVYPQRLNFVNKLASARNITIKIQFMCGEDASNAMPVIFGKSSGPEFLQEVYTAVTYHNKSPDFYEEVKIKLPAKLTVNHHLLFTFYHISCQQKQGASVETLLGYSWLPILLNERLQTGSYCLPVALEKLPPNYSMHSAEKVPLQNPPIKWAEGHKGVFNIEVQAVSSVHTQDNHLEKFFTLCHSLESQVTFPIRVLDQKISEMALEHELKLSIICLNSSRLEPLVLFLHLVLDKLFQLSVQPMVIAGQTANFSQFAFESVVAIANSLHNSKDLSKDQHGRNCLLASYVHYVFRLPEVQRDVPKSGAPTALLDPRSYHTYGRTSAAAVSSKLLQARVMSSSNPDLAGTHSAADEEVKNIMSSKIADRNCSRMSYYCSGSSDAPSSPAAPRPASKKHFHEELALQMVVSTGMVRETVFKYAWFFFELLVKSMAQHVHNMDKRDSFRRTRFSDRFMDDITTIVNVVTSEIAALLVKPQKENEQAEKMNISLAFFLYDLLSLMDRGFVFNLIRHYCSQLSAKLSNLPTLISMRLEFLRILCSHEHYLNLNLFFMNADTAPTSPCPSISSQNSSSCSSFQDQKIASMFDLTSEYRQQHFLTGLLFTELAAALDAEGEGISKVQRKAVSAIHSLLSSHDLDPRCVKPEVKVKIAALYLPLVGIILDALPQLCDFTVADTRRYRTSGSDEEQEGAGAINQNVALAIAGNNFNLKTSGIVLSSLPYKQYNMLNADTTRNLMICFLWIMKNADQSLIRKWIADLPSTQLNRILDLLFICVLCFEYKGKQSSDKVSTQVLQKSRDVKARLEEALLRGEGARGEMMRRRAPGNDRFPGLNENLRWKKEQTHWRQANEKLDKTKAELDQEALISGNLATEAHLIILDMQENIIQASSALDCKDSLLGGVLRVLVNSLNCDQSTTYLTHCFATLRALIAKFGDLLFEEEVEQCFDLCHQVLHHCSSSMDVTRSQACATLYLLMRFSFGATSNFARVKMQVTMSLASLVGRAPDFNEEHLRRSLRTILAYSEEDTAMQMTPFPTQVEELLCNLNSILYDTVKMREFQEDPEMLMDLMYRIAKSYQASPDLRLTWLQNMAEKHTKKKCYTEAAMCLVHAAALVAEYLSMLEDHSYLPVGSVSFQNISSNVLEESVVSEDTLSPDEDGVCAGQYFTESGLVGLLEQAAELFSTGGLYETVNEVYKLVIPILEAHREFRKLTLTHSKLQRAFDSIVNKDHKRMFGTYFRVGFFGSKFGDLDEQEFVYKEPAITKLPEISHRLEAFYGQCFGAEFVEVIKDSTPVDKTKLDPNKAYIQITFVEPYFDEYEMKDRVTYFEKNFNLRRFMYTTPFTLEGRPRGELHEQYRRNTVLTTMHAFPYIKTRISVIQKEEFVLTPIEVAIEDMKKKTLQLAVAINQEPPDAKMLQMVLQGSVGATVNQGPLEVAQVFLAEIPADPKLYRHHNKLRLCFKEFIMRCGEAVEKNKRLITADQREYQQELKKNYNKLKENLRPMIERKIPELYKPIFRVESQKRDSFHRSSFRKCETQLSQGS
UniProt Q8NBI2: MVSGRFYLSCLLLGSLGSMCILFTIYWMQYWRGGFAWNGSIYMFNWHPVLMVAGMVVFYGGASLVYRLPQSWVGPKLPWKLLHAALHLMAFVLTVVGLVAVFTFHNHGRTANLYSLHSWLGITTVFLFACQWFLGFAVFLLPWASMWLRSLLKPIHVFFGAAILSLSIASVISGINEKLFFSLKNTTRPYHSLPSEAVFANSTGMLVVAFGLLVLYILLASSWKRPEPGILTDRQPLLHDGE
UniProt Q8TB05: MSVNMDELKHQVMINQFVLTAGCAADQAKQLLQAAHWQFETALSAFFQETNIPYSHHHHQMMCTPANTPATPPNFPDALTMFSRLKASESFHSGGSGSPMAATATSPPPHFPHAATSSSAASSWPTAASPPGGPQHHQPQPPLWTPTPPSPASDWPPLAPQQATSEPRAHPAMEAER
UniProt Q8N573: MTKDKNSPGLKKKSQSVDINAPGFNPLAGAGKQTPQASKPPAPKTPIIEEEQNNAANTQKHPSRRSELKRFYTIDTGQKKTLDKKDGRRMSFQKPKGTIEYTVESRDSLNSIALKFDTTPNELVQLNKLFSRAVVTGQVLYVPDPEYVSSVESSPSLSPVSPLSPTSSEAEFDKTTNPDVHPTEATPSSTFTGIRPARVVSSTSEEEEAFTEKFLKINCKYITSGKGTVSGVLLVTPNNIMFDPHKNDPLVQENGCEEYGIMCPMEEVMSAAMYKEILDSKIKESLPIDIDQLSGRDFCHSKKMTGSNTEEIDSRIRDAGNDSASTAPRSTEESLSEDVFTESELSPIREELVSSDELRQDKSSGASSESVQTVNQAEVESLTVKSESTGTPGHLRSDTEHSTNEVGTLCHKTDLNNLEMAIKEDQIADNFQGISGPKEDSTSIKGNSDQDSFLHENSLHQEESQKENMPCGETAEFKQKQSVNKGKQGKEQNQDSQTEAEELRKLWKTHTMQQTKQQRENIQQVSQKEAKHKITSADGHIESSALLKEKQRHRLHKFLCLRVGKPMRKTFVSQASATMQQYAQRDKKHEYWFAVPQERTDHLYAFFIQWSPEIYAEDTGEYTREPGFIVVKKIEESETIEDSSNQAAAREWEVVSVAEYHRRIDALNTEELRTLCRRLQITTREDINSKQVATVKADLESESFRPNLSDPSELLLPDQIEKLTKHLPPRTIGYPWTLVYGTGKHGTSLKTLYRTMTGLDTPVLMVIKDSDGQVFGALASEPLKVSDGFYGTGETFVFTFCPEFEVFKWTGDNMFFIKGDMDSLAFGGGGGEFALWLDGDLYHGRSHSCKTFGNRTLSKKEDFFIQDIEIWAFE
UniProt Q8N4L2: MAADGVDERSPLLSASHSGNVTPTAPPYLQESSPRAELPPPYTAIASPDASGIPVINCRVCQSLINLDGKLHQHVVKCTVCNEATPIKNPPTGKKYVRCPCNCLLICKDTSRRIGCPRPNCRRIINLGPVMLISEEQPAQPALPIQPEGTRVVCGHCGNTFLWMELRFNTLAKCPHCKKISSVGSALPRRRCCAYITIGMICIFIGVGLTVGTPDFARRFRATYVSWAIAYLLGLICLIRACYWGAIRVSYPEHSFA

compound: CN[C@@H]1C[C@H]2O[C@@](C)([C@@H]1OC)n1c3ccccc3c3c4c(c5c6ccccc6n2c5c31)C(=O)NC4 [staurosporine]; assay: log2 fold change of tryptic peptide abundance, ligand vs vehicle (limited proteolysis) (log2 ratio); higher = more trypsin-susceptible (destabilized); details: ligand concentration: 20 uM; sample: K562 cleared lysate; digestion: 4 min, 22 C (HT-PELSA RT4min, Orbitrap Astral)

Target	log2 fold change
TET1 (peptide sequence: VKVEPLDSLSLFHLK, peptide start residue: 1255) (UniProt Q8NFU7)	-0.526
STXBP6 (peptide sequence: NSAQQFAETAHK, peptide start residue: 192) (UniProt Q8NFX7)	0.725
NATD1 (peptide sequence: IVDLQHTEVPDAYR, peptide start residue: 52) (UniProt Q8N6N6)	-0.237
NKAP (peptide sequence: NGLTHQLGGLSQGSR, peptide start residue: 54) (UniProt Q8N5F7)	-0.0708
GADD45GIP1 (peptide sequence: AAALAAAVAQDPAASGAPSS, peptide start residue: 203) (UniProt Q8TAE8)	-0.251
FAM98A (peptide sequence: TTISVAHLLAAR, peptide start residue: 261) (UniProt Q8NCA5)	0.195
EHBP1 (peptide sequence: RYELLNR, peptide start residue: 1148) (UniProt Q8NDI1)	0.498
CCNYL1 (peptide sequence: ASTIFLSK, peptide start residue: 65) (UniProt Q8N7R7)	0.0316
PACRGL (peptide sequence: TINPFGEQSR, peptide start residue: 66) (UniProt Q8N7B6)	-0.332
UniProt Q8NHY2 (peptide sequence: KRPLLAPLCNGLINSYEDK, peptide start residue: 112)	-0.336
FLCN (peptide sequence: QVLGAPSFR, peptide start residue: 354) (UniProt Q8NFG4)	0.254
C2orf69 (peptide sequence: SLNVWNKDSIASNCR, peptide start residue: 206) (UniProt Q8N8R5)	0.197
SRFBP1 (peptide sequence: QQLQLPLHPSWEASR, peptide start residue: 394) (UniProt Q8NEF9)	0.332
MLKL (peptide sequence: VLGLIKPLEMLQDQGKR, peptide start residue: 35) (UniProt Q8NB16)	0.297
UniProt Q8TAP9 (peptide sequence: SPAGSQQQFGYSPGQQQTHPQGSPR, peptide start residue: 93)	-0.23
UniProt Q8NDA8 (peptide sequence: LAAQVLGLLLEK, peptide start residue: 1158)	-0.717
MINDY2 (peptide sequence: DSGLESPAAAEAPLRGQYK, peptide start residue: 89) (UniProt Q8NBR6)	0.046
CTCFL (peptide sequence: GTFHCDVCMFTSSR, peptide start residue: 255) (UniProt Q8NI51)	-0.222
FAM160A2 (peptide sequence: SRRPSLGELLLR, peptide start residue: 855) (UniProt Q8N612)	0.799

Target	log2 fold change
ZNF485 (peptide sequence: EAPSGTHAVEDYWFETK, peptide start residue: 75) (UniProt Q8NCK3)	-0.39
DOCK8 (peptide sequence: KNQGSPEICGFKK, peptide start residue: 135) (UniProt Q8NF50)	0.755
TOR1AIP2 (peptide sequence: LLAPEAGSHPQQTQK, peptide start residue: 181) (UniProt Q8NFQ8)	-0.0677
ANKRD44 (peptide sequence: HSADVNAR, peptide start residue: 96) (UniProt Q8N8A2)	0.599
ATPAF2 (peptide sequence: KLKTPQAK, peptide start residue: 70) (UniProt Q8N5M1)	0.555
UniProt Q8NB37 (peptide sequence: LESIDGAR, peptide start residue: 78)	0.157
UniProt Q8NHM5 (peptide sequence: ESMLIDAPR, peptide start residue: 387)	0.399
UniProt Q8N954 (peptide sequence: NALGCENKGFALLQK, peptide start residue: 91)	-0.231
UniProt Q8NBI2 (peptide sequence: QPLLHDGE, peptide start residue: 235)	-0.382
UniProt Q8N8J7 (peptide sequence: GGDGGERDEDGDALAER, peptide start residue: 10)	0.4
UniProt Q8TB05 (peptide sequence: AHPAMEAER, peptide start residue: 169)	0.129
ZCCHC7 (peptide sequence: KNGVIPEPSKLPYIK, peptide start residue: 403) (UniProt Q8N3Z6)	-0.3
UniProt Q8N972 (peptide sequence: AFSCSSSFR, peptide start residue: 371)	0.156
UniProt Q8N8E2 (peptide sequence: ALSAESEVEEPARGPGEAR, peptide start residue: 94)	-0.0151
OXR1 (peptide sequence: KMTGSNTEEIDSR, peptide start residue: 303) (UniProt Q8N573)	-0.579
PIP4P2 (peptide sequence: CTVCNEATPIKNPPTGK, peptide start residue: 78) (UniProt Q8N4L2)	-0.506
UniProt Q8TAM1 (peptide sequence: MIVDCVSSHLK, peptide start residue: 67)	-0.315
UniProt Q8NBL1 (peptide sequence: WDLFREDLVR, peptide start residue: 184)	0.695

Some of the entries so far, as comma-separated lines.
Target,log2 fold change
"MINDY2 (peptide sequence: DSGLESPAAAEAPLRGQYK, peptide start residue: 89) (UniProt Q8NBR6)",0.046
"CTCFL (peptide sequence: GTFHCDVCMFTSSR, peptide start residue: 255) (UniProt Q8NI51)",-0.222
"FAM160A2 (peptide sequence: SRRPSLGELLLR, peptide start residue: 855) (UniProt Q8N612)",0.799
"ZNF485 (peptide sequence: EAPSGTHAVEDYWFETK, peptide start residue: 75) (UniProt Q8NCK3)",-0.39
"DOCK8 (peptide sequence: KNQGSPEICGFKK, peptide start residue: 135) (UniProt Q8NF50)",0.755
"TOR1AIP2 (peptide sequence: LLAPEAGSHPQQTQK, peptide start residue: 181) (UniProt Q8NFQ8)",-0.0677
"ANKRD44 (peptide sequence: HSADVNAR, peptide start residue: 96) (UniProt Q8N8A2)",0.599
"ATPAF2 (peptide sequence: KLKTPQAK, peptide start residue: 70) (UniProt Q8N5M1)",0.555
"UniProt Q8NB37 (peptide sequence: LESIDGAR, peptide start residue: 78)",0.157
"UniProt Q8NHM5 (peptide sequence: ESMLIDAPR, peptide start residue: 387)",0.399
